Substitutions are numbered along the chain they refer to. Some of the results follow. For some of these results: At the low end of the ranking the order means little. Some results are limits rather than exact numbers.

Consider one sequence from publication PMC8384837.

Common to all, as to details: yeast three-hybrid, YBZ-1, SC-Leu-His + 0.5 mM 3-AT, 4 days
The target of assay [1] is T1, PUM1 PUF domain R3-FIA C935F + R936I + Q939A (Homo sapiens) (UniProt Q14671).
T1 sequence: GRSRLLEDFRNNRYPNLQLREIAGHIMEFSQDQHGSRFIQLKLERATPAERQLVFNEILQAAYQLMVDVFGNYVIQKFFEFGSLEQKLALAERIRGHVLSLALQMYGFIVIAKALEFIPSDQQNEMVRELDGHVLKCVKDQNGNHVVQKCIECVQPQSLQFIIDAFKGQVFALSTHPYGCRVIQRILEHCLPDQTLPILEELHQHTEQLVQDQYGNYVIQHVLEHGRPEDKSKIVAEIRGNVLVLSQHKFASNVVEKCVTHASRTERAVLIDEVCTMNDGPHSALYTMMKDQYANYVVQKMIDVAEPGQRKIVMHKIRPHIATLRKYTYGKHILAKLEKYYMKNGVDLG

In assay [2] the target is T2, PUM1 PUF domain R3-FIG C935F + R936I + Q939G (UniProt Q14671).
T2 sequence: T1 sequence with A112G

The target of assay [3] is T3, PUM1 PUF domain R3-FRA C935F + Q939A (UniProt Q14671).
T3 sequence: T1 sequence with I109R

Assay [4] concerns the target T4, PUM1 PUF domain R3-FRG C935F + Q939G (UniProt Q14671).
T4 sequence: T1 sequence with I109R, A112G

In assay [5] the target is T5, PUM1 PUF domain R3-FRM C935F + Q939M (UniProt Q14671).
T5 sequence: T1 sequence with I109R, A112M

Assay [6] deals with T6, PUM1 PUF domain R3-FRP C935F + Q939P (UniProt Q14671).
T6 sequence: T1 sequence with I109R, A112P

In assay [7] the target is T7, PUM1 PUF domain R3-FRR C935F + Q939R (Homo sapiens) (UniProt Q14671).
T7 sequence: T1 sequence with I109R, A112R

Assay [8] has as its target T8, PUM1 PUF domain R3-FRW C935F + Q939W (UniProt Q14671).
T8 sequence: T1 sequence with I109R, A112W

In assay [9] the target is T9, PUM1 PUF domain R3-FSG C935F + R936S + Q939G (UniProt Q14671).
T9 sequence: T1 sequence with I109S, A112G

In assay [10] the target is T10, PUM1 PUF domain R3-FSN C935F + R936S + Q939N (UniProt Q14671).
T10 sequence: T1 sequence with I109S, A112N

Assay [11] addresses T11, PUM1 PUF domain R3-FSR C935F + R936S + Q939R (UniProt Q14671).
T11 sequence: T1 sequence with I109S, A112R

Assay [12] addresses T12, PUM1 PUF domain R3-FSS C935F + R936S + Q939S (UniProt Q14671).
T12 sequence: T1 sequence with I109S, A112S

Assay [13] deals with T13, PUM1 PUF domain R3-FWR C935F + R936W + Q939R (Homo sapiens) (UniProt Q14671).
T13 sequence: T1 sequence with I109W, A112R

The target of assay [14] is T14, PUM1 PUF domain R3-FWS C935F + R936W + Q939S (UniProt Q14671).
T14 sequence: T1 sequence with I109W, A112S

The target in assay [15] is T15, PUM1 PUF domain R3-FYG C935F + R936Y + Q939G (Homo sapiens) (UniProt Q14671).
T15 sequence: T1 sequence with I109Y, A112G

Assay [16] has as its target T16, PUM1 PUF domain R3-GCD C935G + R936C + Q939D (UniProt Q14671).
T16 sequence: T1 sequence with F108G, I109C, A112D

Assay [17] concerns the target T17, PUM1 PUF domain R3-GCE C935G + R936C + Q939E (Homo sapiens) (UniProt Q14671).
T17 sequence: T1 sequence with F108G, I109C, A112E

The target of assay [18] is T18, PUM1 PUF domain R3-GCK C935G + R936C + Q939K (UniProt Q14671).
T18 sequence: T1 sequence with F108G, I109C, A112K

For assay [19], the target named is T19, PUM1 PUF domain R3-GCR C935G + R936C + Q939R (UniProt Q14671).
T19 sequence: T1 sequence with F108G, I109C, A112R

For assay [20], the target named is T20, PUM1 PUF domain R3-GCW C935G + R936C + Q939W (UniProt Q14671).
T20 sequence: T1 sequence with F108G, I109C, A112W

The target in assay [21] is T21, PUM1 PUF domain R3-GFF C935G + R936F + Q939F (UniProt Q14671).
T21 sequence: T1 sequence with F108G, I109F, A112F

Assay [22] has as its target T22, PUM1 PUF domain R3-GFL C935G + R936F + Q939L (UniProt Q14671).
T22 sequence: T1 sequence with F108G, I109F, A112L

Turning to “GGCUAGAACUAGUGGAUCCCCCGGCGCCCGGCGGCUCGAGCCCGGGUAAGUGUAACUAGUCUGCAUGCCGCCGGGCGCCAUGCCUGCAGGUCGACUCUAGAAAACAUG”, the binding signal (log2 enrichment (interaction score)) in [1] was -2.93; in assay [2], below -8.98; in [3], below -7.44; in [4], -7.47; in assay [5] it was below -7.12; in assay [6], below -7.49. Further, the binding signal (log2 enrichment (interaction score)) in assay [7] is 0.49; in assay [8], -7.63; in assay [9], below -9.64; in [10], below -6.49; in assay [11], -6.57; in [12], below -7.84. Moreover, the binding signal (log2 enrichment (interaction score)) in assay [13] is -0.93; in [14] it was -2.88; in [15], -3.6; in [16], below -8.32; in assay [17] it was -1.12; in assay [18], below -7.61. Moreover, the binding signal (log2 enrichment (interaction score)) in assay [19] is -3.41; in assay [20], below -9.77; in [21], below -7.94; in assay [22], below -9.4.
